Test results: publication PMC10163288
Some of the results follow.

B1: il10ra_site1_sap_15_mot_HHH_b2_07442_000000239_0001_40_54_H_._HHH_b1_00124_0001_0000300024_0000001_0_0001_1 (protein)
chain: SSSSDEEQSEALRHFLEHLIEAGNKRMLEFAVEFARHAAEVLGDEELKRVIEEAEEFLERGSSSS
B2: il10ra_site1_sap_17_mot_HHH_b1_06786_000000000_0001_1_20_H_._HHH_b2_02987_0001_0000200019_0000001_0_0001 (protein)
chain: SSSSFHEVWRLSREIMEAIREGDEERVRELLEQLEELLEETGDPMVEYLLRVLRLAFEHTFSSSS
B3: il10ra_site1_normal_mot_HHH_b1_04940_000000219_0001_1_18_H_._HHH_b1_01947_0001_0000200016_0000002_0 (protein)
chain: SSSSDEEERRYARLALRFARWLAEAGDHEAVRRFFESVEDAAEQLNDPEIEEILEEIEELLSSSS
B4: il10ra_site1_sap_19_mot_HHH_b1_02881_000000046_0001_1_20_H_._HHH_b2_01166_0001_0000200017_0000001_0_0001 (protein)
chain: SSSSDEEQEELFRLLEELAELAHEGDEEKVEKLTEEVEELARELGNPLFEWQARWLLRRLSSSSS
B5: il10ra_site1_normal_mot_HHH_b2_00984_000000042_0001_1_20_H_._HHH_b1_07343_0001_0000300015_0000001_0 (protein)
chain: SSSSNEEFLRLAQEAVQLAIRLNDPEALQQIWELIKRYAEEGDPRLEEELEELVEELRERGSSSS
B6: il10ra_site1_sap_23_mot_HHH_b2_05343_000000235_0001_19_35_H_._HHH_b2_03978_af2_0001_0000200014_0000001_0_0001 (protein)
chain: SSSSDEEEERKEELEKEIERLEEEGDPRRAAKLLAELIALAFELSDEELLQEAWRIALENSSSSS
B7: il10ra_site1_sap_16_mot_HHH_b2_00564_af2_000000012_0001_18_34_H_._HHH_b1_08052_af2_0001_0000300017_0000001_1_0001 (protein)
chain: SSSSTEEVEELLVEAMELRLEGNPEEAEEVLREALELAREEGNRAAVYLIRQALKALELLSSSSS
B8: il10ra_site1_sap_18_mot_HHH_b1_03900_000000129_0001_1_16_H_._HHH_b1_06046_af2_0001_0000100005_0000002_0_0001_af2pred_0001 (protein)
chain: SSSSSDEEVRERIEELLEEAEQISDEREAAHALFKASRLALELGDKEIARAVDEVAIKLNSSSSS
B9: il10ra_site1_normal_mot_HHH_b2_02933_000000199_0001_1_19_H_._HHH_b1_07434_af2_0001_0000200008_0000001_0_af2pred_dldesign_0_af2pred (protein)
chain: SSSSSSSPREEVLRLIEEASELEDKEKAKEVLEKALELAQELKDELLIDAVQYRLKQISSSSSSS
B10: il10ra_site1_normal_mot_HHH_b1_02809_af2_000000277_0001_40_57_H_._HHH_b1_00768_af2_0001_0000200008_0000001_0 (protein)
chain: SSSSSSDANETAARLIRAAYRGDEELFEELREELEELIERYGDPRLRLALQFAEALFRELSSSSS
B11: il10ra_site1_normal_mot_HHH_b2_03801_000000188_0001_20_36_H_._HHH_b1_01557_0001_0000400022_0000001_0_af2pred_0001 (protein)
chain: SSSSSDRETAERSAKFLLEAAKQLDDDEAVKLTLRAARFTAESVNDEELKEEIEKVIEELSSSSS
B12: il10ra_site1_normal_mot_HHH_b2_04327_000000030_0001_41_55_H_._HHH_b1_05082_0001_0000600034_0000001_0 (protein)
chain: SSSSSEEEEVEELLEEAKQIPDPKEVSRLLAEAVRIAMRAGNEELFEEIWRVAMEIFRRLSSSSS
B13: il10ra_site1_sap_18_mot_HHH_b2_07873_af2_000000172_0001_1_19_H_._HHH_b2_06273_0001_0000100003_0000001_0_0001 (protein)
chain: SSSSEEAFEEVKRLIEEIAQLLEEGDEEKVEELLKELRELAEERNDPIIRHVVELLEKALKSSSS
B14: il10ra_site1_sap_26_mot_HHH_b1_03333_000000091_0001_1_17_H_._HHH_b1_01909_0001_0000300036_0000001_0_0001 (protein)
chain: SSSSDEESRRIMELMRRVSELDQNGNPEEAREVLEEARQLAEEAGNQLLRLQIEYLERLLNSSSS
B15: il10ra_site1_normal_mot_HHH_b1_06994_000000193_0001_40_55_H_._HHH_b1_03437_0001_0000400021_0000002_0 (protein)
chain: SSSSSDEEELVEAALRLAEQVYEAGDPESAKLLLWAAEFLAREIGDEELRELVEEVEEKISSSSS
B16: il10ra_site1_normal_mot_HHH_b2_02337_000000026_0001_38_52_H_._HHH_b1_02776_0001_0000100001_0000001_1 (protein)
chain: SSSSDLEEEIEELLKELEELIKEGDQERISELAQRILRLIAEAQNAELLRRLWELVQAFYSSSSS
B17: il10ra_site1_sap_18_mot_HHH_b1_03859_af2_000000004_0001_44_57_H_._HHH_b2_00424_0001_0000200006_0000001_0_0001_af2pred_dldesign_0_af2pred (protein)
chain: SSSSPEVEARLAEAEKRLEELKEKDDLKAKAALAQEIFDMALETGDPRIQALLQKALAMLKSSSS
B18: il10ra_site1_sap_19_mot_HHH_b2_01205_000000166_0001_1_19_H_._HHH_b1_07939_0001_0000100003_0000002_0_0001 (protein)
chain: SSSSSEEEIEELLKRLEELIREGDTEEAYKLIRRIAELIHELGNDELAKELLRLLRALMRSSSSS
B19: il10ra_site1_sap_19_mot_HHH_b1_06914_000000280_0001_1_18_H_._HHH_b2_02871_af2_0001_0000200012_0000001_0_0001 (protein)
chain: SSSSAEELFKAVEEAIEEAAELWRNGDPEEAERVLEEILEEVEKRGDRIAALALEHLLRVLSSSS
B20: il10ra_site1_sap_23_mot_HHH_b2_02022_af2_000000170_0001_1_16_H_._HHH_b1_03896_0001_0000100006_0000001_0_0001 (protein)
chain: SSSSDLEERIEELIEEAKELLERGDPEEALHLLFEATHLALRLGNEELLQEVWRLFKELASSSSS
B21: il10ra_site1_normal_mot_HHH_b1_06994_000000193_0001_40_55_H_._HHH_b1_00400_0001_0000100001_0000002_0 (protein)
chain: SSSDKEERELVRAALRLVEQAVKAGDEETAEFLVISMELLAEELNDPELRELVEQAEELINSSSS
B22: il10ra_site1_normal_mot_HHH_b2_04912_000000028_0001_1_20_H_._HHH_b1_06894_0001_0000300011_0000001_1 (protein)
chain: SSSSSDLLQEVLELSKRAFRLALRGNPEEAREVLEEAAELAEELGNPDLLRVLRELLQALSSSSS
B23: il10ra_site1_normal_mot_HHH_b2_06767_000000020_0001_41_56_H_._HHH_b1_04040_af2_0001_0000200011_0000001_0_af2pred_0001 (protein)
chain: SSSSDREEVLQLLLEISRLLQEGNKEEAEELLEEVKELVEEIGDERLKLSVRFLEALVKSLSSSS
B24: il10ra_site1_sap_21_mot_HHH_b1_05326_000000242_0001_1_20_H_._HHH_b1_00201_af2_0001_0000500048_0000001_0_0001 (protein)
chain: SSSSDLHEQVFELLREAAELRSEGNPEEAREVVREALEIAEEMGSQLFEFNAEFVLRDIEESSSS
B25: il10ra_site1_sap_7_mot_HHH_b1_06786_000000000_0001_1_20_H_._HHH_b2_05728_af2_0001_0000400011_0000001_0_0001 (protein)
chain: SSSSSSSSVEEEVEELLEEAKHVSPEEATELLARALEVAYEGNNEELLREIWKVVEELSSSSSSS
B26: il10ra_site1_sap_10_mot_HHH_b2_03038_000000109_0001_1_20_H_._HHH_b1_00021_af2_0001_0000300016_0000002_1_0001 (protein)
chain: SSSSDLEELLEELKELIEEGDREKAAKLIQRIIRAAFRNSDPEALHAVWKLLRELEELAERSSSS
B27: il10ra_site1_sap_23_mot_HHH_b1_05860_000000142_0001_1_19_H_._HHH_b1_02122_0001_0000100013_0000001_0_0001 (protein)
chain: SSSSSSDVEEEIEELIEEARHIEDPHEALRVLKRALHLAFQIRNEELLQAIWRVARELSSSSSSS
B28: il10ra_site1_normal_mot_HHH_b1_05937_af2_000000262_0001_20_37_H_._HHH_b1_00702_0001_0000200014_0000001_0 (protein)
chain: SSSSDREEVEELLEELEEAYKEGDHEKFLRLIIRAARLIFRIGDDELMRLLHELAKRLASSSSSS
B29: il10ra_site1_normal_mot_HHH_b2_00033_000000036_0001_41_54_H_._HHH_b1_01859_0001_0000400022_0000002_0 (protein)
chain: SSSSSSEEEAEELVEELEELIRRGDHEKVIRASAEAVRIVMELGNEEAFQRLWELVKEFASSSSS
B30: il10ra_site1_normal_mot_HHH_b2_06142_af2_000000101_0001_1_18_H_._HHH_b1_05714_0001_0000200009_0000002_0 (protein)
chain: SSSDEEIERRAFQLLIEIFHLLRKGNREEAEELLKELEKLREELGDPSVQNALAAAEMLVKSSSS
B31: il10ra_site1_sap_18_mot_HHH_b2_04679_000000194_0001_21_38_H_._HHH_b1_05122_0001_0000100001_0000001_0_0001 (protein)
chain: SSSSDVRRRIQQLLVEAHHALWKGDREKAEELLEELEELVREHNDRKARLVVESLERIIEESSSS
B32: il10ra_site1_sap_13_mot_8677146645409c09fa773dfa88d80d04_0001_1_000000098_0001_1_14_H_._HHH_b1_02768_0001_0000100002_0000002_0_0001 (protein)
chain: SSSSDQAMEVVVKFVLEVAEETARKDPERARHQLEALLEHLRQAGDPELIEEVEELLEELSSSSS
B33: il10ra_site1_normal_mot_HHH_b1_06914_000000280_0001_1_18_H_._HHH_b2_03127_0001_0000400018_0000001_0_af2pred_0001 (protein)
chain: SSSSSLSERVYELLREAIEAHSEGDPEEAERIVEEAEELAEEGGNLNLLAIARFLLEIITSSSSS
B34: il10ra_site1_normal_mot_HHH_b1_05697_000000276_0001_40_57_H_._HHH_b1_08314_af2_0001_0000300023_0000001_0_af2pred_0001 (protein)
chain: SSSSDREEFHIEALLRLAELTAEAGNPKAARRKVEFAYKAAEELGNEELLEEAERLLKELSSSSS
B35: il10ra_site1_sap_16_mot_HHH_b2_04592_000000276_0001_41_54_H_._a2bf7c1b5df5f4a6a28f683756f784c8_0001_1_0001_0000100002_0000001_0_0001 (protein)
chain: SSSDESQRVYELLREAMELLDDGDEEEARELIEEAERLAEELNNWTFRRNVELLQRELEAISSSS
B36: il10ra_site1_sap_27_mot_HHH_b1_03262_af2_000000181_0001_43_57_H_._ems_3hM_2924_af2_0001_0000200007_0000001_0_0001 (protein)
chain: SSSSDADELYELLKKIIELFSEGDDEEAERLIEELEKLAKELNNWVILMVLRMILEELERRSSSS
B37: il10ra_site1_sap_21_mot_HHH_b1_01693_000000146_0001_1_17_H_._HHH_b2_04774_0001_0000200019_0000002_0_0001 (protein)
chain: SSSSSDDERSLKRMLEALERAVELGDEEYIRLATKFIKAMARAANDPEVEERAEELLREFGSSSS

biological target: il10ra, Q13651; experiment: yeast display titration

Apparent Kd, inactive:
B1 no binding seen
B2 no binding seen
B3 no binding seen
B4 no binding seen
B5 no binding seen
B6 no binding seen
B7 no binding seen
B8 no binding seen
B9 no binding seen
B10 no binding seen
B11 no binding seen
B12 no binding seen
B13 no binding seen
B14 no binding seen
B15 no binding seen
B16 no binding seen
B17 no binding seen
B18 no binding seen
B19 no binding seen
B20 no binding seen
B21 no binding seen
B22 no binding seen
B23 no binding seen
B24 no binding seen
B25 no binding seen
B26 no binding seen
B27 no binding seen
B28 no binding seen
B29 no binding seen
B30 no binding seen
B31 no binding seen
B32 no binding seen
B33 no binding seen
B34 no binding seen
B35 no binding seen
B36 no binding seen
B37 no binding seen

Nothing new here: an excerpt of the list.
Apparent Kd, inactive:
B1 no binding seen
B2 no binding seen
B3 no binding seen
